Measurements from article PMC2635935.
Results are given in words; binding and its absence hold for the method and conditions named. Binding seen in cells or lysates may run through a third protein. Where a sequence is shown, tags or fusion partners need not be part of it.

Protein sequences, listed by entry. Tags and fused reporters are not part of them. Lines headed by an entry give the natural chain unless they say otherwise; changes in a name come on top.
UniProt P46060: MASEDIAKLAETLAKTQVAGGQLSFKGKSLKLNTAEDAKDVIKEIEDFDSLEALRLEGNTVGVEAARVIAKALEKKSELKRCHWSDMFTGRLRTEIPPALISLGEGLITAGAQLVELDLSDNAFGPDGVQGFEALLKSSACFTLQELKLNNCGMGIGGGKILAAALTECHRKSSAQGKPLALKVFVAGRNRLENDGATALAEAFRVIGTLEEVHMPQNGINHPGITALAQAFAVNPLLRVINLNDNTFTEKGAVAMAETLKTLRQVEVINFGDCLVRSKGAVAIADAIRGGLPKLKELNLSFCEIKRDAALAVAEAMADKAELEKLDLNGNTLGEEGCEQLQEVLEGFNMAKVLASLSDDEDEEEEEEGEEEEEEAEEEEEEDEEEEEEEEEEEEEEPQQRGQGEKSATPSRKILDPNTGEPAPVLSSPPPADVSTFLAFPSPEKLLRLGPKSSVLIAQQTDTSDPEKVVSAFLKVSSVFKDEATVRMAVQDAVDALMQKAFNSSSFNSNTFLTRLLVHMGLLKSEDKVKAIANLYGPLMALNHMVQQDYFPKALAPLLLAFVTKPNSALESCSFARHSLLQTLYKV

Target: T1, HA-Cystatin B (UniProt P01041)
T1 sequence: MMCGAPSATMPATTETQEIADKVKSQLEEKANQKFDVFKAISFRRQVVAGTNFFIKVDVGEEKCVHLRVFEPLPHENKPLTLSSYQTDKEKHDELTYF
Test: co-IP; 293T cells 24 hr after transfection, lysed in RIPA buffer (300 mM NaCl, 0.5% NP40, 20 mM Hepes KOH pH 8, 20% Glycerol, 2 mM DTT, 0.4 mM EDTA) and sonicated; 400 µg extract immunoprecipitated overnight with anti-HA abs on Protein A-Sepharose; western blot

binding | Substance
no binding | Flag-ARIP3 wt (aa 1–572) (from UniProt Q6AZ28 1-572) (enzyme)
no binding | Ubc9 (pRK7, expressed in 293T cells) (from UniProt P63281 1-158) (enzyme)
no binding | sumoylated RanGAP1 (approximately 90 Kd) (from UniProt P46060 1-587; P63165 1-97) (complex)
